Test results published in patent publication US20130251714A1.
Results are given in words; binding and its absence hold for the method and conditions named. Some results given as binding are weak or reduced against the parent protein; the word gives no strength.

Protein sequences, listed by entry. Tags and fused reporters are not part of them.
UniProt P32302: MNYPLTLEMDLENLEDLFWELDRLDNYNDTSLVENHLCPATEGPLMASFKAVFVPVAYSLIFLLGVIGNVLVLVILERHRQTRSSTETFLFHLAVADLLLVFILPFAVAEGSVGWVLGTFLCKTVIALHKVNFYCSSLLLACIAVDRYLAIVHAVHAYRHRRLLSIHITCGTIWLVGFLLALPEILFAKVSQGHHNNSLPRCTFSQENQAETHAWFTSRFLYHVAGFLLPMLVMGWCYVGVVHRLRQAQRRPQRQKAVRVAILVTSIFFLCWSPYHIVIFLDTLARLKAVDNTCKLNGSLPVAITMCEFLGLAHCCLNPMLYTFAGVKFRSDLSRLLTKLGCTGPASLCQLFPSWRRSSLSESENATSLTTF

Target: human CXCR5 (full-length, expressed on cells) (human) (UniProt P32302)
Test: FACS on human PBMCs (B cells)

B1: 16D7-HC1-LC6 (antibody, V domains shown)
VH: QVQLKESGPGLVAPSESLSITCTVSGFSLIDYGVNWIRQPPGKGLEWLGVIWGDGTTYYNPSLKSRLSISKDNSKSQVFLKVTSLTTDDTAMYYCARIVYWGQGTLVTVSA
VL: DIVMTQSALSVAVTPGESVSISCRSSKSLLHSSGKTYLYWFLQRPGQSPQLLIYRLSSLASGVPDRFSGSGSGTAFTLKISRVEAEDVGVYYCMQHLEYPYTFGGGTKLEIKR
Which binding does the source give for B1 here?
The binding was “binds”.
